In article PMC3230590, “Structure of the Bro1 Domain Protein BROX and Functional Analyses of the ALIX Bro1 Domain in HIV-1 Budding” (PLoS ONE, 2011):
Results are given in words; binding and its absence hold for the method and conditions named. Tags and fused reporters may be left off the sequences shown.

Sequences of proteins named here, by UniProt entry; tags and fusion partners are left off. A change or cut given only in a name is not applied to a line headed by its entry.
UniProt Q5VW32: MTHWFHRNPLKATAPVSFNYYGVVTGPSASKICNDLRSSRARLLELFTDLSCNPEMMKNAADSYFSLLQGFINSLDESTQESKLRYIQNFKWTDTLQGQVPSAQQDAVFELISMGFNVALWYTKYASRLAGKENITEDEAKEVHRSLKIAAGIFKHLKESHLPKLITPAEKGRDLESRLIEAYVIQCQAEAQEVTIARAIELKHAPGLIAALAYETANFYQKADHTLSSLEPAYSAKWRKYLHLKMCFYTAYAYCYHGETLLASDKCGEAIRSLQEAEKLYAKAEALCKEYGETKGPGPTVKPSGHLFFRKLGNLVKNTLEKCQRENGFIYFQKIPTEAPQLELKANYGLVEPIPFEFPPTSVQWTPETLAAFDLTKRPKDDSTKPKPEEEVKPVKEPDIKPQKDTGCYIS

Biological target: T1, GST-CHMP4B(205-224) (UniProt Q9H444)
T1 sequence: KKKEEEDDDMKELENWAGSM
Assay: SPR; Biacore 2000; CM5 chip with amine-coupled anti-GST antibody capturing GST-CHMP4B(205-224) or GST alone from crude E. coli lysates; pure BROX proteins injected in triplicate, 1.5-fold dilution series from 400 µM; equilibrium responses fit to 1:1 isotherms; both purified

| Substance | binding |
| --- | --- |
| BROX K141E (from UniProt Q5VW32) | no binding (tested: 400 µM) |
| BROX L212D (from UniProt Q5VW32) | no binding (tested: 400 µM) |
